# For at least one compound, name, drawing or mass did not settle the structure.
# How the values were obtained:
# 15-PGDH = experiment: dexamethasone induction of colon 15-PGDH in mice; assay type: in vivo, mouse; conditions: three daily doses, 6 hours after third dose
# DSS induced colitis [1] = experiment: dexamethasone dose effect on colitis induction by 2% DSS; assay type: in vivo, FVB/NJ male mice; conditions: concurrent 2% DSS; for weight loss during DSS colitis induction compared to the lower dose: FIG. 13A
# DSS induced colitis [2] = experiment: DSS colitis treatment study: (+) SW033291, dexamethasone or combination from day 8; assay type: in vivo, mice
structure (smiles),measurement,setting,value
C[C@@H]1C[C@H]2[C@@H]3CCC4=CC(=O)C=C[C@]4(C)[C@@]3(F)[C@@H](O)C[C@]2(C)[C@@]1(O)C(=O)CO [dexamethasone],colon 15-PGDH expression level (real time RT-PCR),15-PGDH; FIG. 11C,approximate doubling
same,15-PGDH enzyme activity in colons,15-PGDH; FIG. 12,near doubling
same,15-PGDH protein in mouse colon (western blot),"15-PGDH; two different doses, FIG. 11B",induction of 15-PGDH protein
same,weight loss during DSS colitis induction compared to the lower dose,DSS induced colitis [1]; 0.3 mpk daily IP,significantly worse weight loss
same,weight loss during DSS colitis induction compared to the lower dose,DSS induced colitis [1]; 3 mpk daily IP,significantly worse weight loss
same,disease activity during DSS colitis induction compared to the lower dose,"DSS induced colitis [1]; 3 mpk daily IP, FIG. 13B",significantly worse disease activity
same,"disease activity index (DAI, 0-6 scale)","DSS induced colitis [2]; (+) SW033291 5 mpk IP twice daily, dexamethasone 0.06 mpk IP daily, from day 8, FIG. 16",some amelioration
same,histology of distal colon: destruction of epithelial crypt structures,"DSS induced colitis [2]; day 13, compared to (+)-SW033291- or combination-treated mice, FIG. 22",more severely manifested
same,endoscopy: reduced wall transparency,"DSS induced colitis [2]; day 13, compared to (+)-SW033291 or combination, FIG. 20",more prominent
same,daily weights (weight loss),"DSS induced colitis [2]; days 1-17, (+) SW033291 5 mpk IP twice daily, dexamethasone 0.06 mpk IP daily, from day 8, FIG. 15",some amelioration of weight loss

# Source: patent publication US11690847B2, “Combinations of 15-PGDH inhibitors with corticosteroids and/or TNF inhibitors and uses thereof” (CASE WESTERN RESERVE UNIVERSITY, priority 2016, dated 2023)
